Measurements reported in article PMC7140450.
These are yes or no findings as the source states them, for the method shown. In cells and extracts the contact can be indirect. Some binding calls cover weakened binding; strength is not graded here.

Protein sequences, listed by entry. Tags and fused reporters are not part of them.
UniProt P09936: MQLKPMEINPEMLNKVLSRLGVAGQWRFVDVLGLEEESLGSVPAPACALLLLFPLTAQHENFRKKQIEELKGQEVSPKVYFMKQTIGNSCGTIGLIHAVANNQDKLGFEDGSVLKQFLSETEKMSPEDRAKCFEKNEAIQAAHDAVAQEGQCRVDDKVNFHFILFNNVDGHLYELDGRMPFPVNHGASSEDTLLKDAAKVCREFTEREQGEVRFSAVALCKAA
UniProt Q14247: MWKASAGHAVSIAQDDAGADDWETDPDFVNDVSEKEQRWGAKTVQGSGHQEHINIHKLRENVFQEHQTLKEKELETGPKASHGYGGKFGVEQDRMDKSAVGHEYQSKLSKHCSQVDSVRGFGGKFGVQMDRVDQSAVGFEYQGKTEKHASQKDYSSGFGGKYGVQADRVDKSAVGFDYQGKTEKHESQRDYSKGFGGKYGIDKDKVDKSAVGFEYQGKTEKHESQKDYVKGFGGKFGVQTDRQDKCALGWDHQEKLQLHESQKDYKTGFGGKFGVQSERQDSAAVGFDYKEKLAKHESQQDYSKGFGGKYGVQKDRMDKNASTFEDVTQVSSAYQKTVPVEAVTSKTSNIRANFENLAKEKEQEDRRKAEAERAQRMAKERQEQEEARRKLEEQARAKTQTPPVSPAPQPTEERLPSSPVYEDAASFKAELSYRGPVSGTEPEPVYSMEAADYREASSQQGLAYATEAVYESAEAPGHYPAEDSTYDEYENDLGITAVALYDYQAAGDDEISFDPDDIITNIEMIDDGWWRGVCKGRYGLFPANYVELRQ

Columns and labels:
[1] = target: endogenous UCHL1 of NP69 cells (human (endogenous in NP69)) (UniProt P09936); assay: co-IP; endogenous proteins in NP69 cells; IP with anti-UCHL1 (IgG control) overnight at 4 °C, magnetic beads, immunoblot with anti-UCHL1 and anti-CTTN
[2] = target: FLAG-tagged UCHL1 (ubiquitin C-terminal hydrolase L1) (UniProt P09936); assay: co-IP; SUNE1 cells transfected with FLAG-UCHL1; IP with anti-FLAG (IgG control) overnight at 4 °C, magnetic beads, immunoblot for endogenous CTTN

## endogenous CTTN (cortactin) of NP69 cells (from UniProt Q14247 1-550)
[1]
  binding: binds

## endogenous CTTN (cortactin) of SUNE1 cells (from UniProt Q14247 1-550)
[2]
  binding: binds
